These are yes or no findings as the source states them, for the method shown. For some of these results: In cells and extracts the contact can be indirect. Some results given as binding are weak or reduced against the parent protein; the word gives no strength.
What was measured:
[1] = target: nucleolin (endogenous, THP-1 cells) (human (endogenous in THP-1)) (UniProt P19338); assay: cross-linking; cytosolic (S100) fractions of PMA stimulated THP-1 cells; 2 mM BS3, 30 min at RT, stopped with 50 mM Tris; then immunoprecipitation with anti-nucleolin or anti-Stat1 antibodies and Western blotting
[2] = target: nucleolin (endogenous, THP-1 cells) (human (endogenous in THP-1)) (UniProt P19338); assay: co-IP; whole-cell extracts of PMA stimulated THP-1 cells; anti-nucleolin or anti-Stat1 antibody coupled to protein A/G-agarose; Western blotting for Stat1 or nucleolin
[3] = target: nucleolin (endogenous, THP-1 cells) (human (endogenous in THP-1)) (UniProt P19338); assay: co-IP; whole-cell extracts of non-stimulated THP-1 cells; anti-nucleolin or anti-Stat1 antibody coupled to protein A/G-agarose; Western blotting for Stat1 or nucleolin
[4] = target: nucleolin (endogenous, THP-1 cells) (human (endogenous in THP-1)) (UniProt P19338); assay: native gel or EMSA; 32P-labeled GAS oligonucleotide; extracts of THP-1 cells treated with PMA for 24, 48 or 72 h; 30 min at 25°C; extracts pre-incubated with 3 µg of Stat1 polyclonal or nucleolin monoclonal antibodies (antibody competition/supershift)

Sequences of proteins named here, by UniProt entry; tags and fusion partners are left off.
UniProt P19338: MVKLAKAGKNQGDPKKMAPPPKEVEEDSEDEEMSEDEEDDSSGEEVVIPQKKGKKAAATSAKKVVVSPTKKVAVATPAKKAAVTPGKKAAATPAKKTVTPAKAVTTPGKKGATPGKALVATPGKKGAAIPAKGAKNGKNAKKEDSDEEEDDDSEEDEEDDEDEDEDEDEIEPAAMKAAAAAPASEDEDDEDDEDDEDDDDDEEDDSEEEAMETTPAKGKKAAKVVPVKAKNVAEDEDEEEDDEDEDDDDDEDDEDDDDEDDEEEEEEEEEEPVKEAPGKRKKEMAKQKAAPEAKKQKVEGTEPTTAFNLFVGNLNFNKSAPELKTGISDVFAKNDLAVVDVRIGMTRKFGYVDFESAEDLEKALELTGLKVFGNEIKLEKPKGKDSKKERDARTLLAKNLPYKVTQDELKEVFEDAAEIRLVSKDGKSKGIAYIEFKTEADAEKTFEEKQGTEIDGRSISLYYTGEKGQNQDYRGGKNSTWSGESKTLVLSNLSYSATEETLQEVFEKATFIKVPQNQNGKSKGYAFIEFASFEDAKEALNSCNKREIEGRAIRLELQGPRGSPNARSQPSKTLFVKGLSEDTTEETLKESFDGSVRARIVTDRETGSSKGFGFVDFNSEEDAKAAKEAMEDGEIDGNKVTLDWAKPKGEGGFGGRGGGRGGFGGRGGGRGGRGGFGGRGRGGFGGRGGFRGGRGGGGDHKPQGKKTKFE
UniProt P42224: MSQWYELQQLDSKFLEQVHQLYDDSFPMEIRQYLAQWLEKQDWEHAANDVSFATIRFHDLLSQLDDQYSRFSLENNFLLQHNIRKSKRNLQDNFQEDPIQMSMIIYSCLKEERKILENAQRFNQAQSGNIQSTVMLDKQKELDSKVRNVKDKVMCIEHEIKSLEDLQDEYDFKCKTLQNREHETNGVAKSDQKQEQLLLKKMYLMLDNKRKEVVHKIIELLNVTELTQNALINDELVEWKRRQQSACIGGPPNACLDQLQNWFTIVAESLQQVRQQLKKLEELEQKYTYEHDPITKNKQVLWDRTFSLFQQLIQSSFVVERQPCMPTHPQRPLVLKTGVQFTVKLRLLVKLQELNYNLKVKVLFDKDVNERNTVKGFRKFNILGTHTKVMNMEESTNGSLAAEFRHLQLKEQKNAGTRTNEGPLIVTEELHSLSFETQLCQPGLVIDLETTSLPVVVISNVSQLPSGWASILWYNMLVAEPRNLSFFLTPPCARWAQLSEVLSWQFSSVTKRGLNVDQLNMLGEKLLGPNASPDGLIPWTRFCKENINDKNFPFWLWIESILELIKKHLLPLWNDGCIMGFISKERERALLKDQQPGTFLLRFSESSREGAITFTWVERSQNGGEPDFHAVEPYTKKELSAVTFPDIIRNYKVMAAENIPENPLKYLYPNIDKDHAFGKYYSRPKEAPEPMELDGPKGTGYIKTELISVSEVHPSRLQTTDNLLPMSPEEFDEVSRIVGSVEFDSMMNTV

binding [1]: binds | binding [2]: binds | binding [4]: binds
Substance: Stat1 (endogenous, human cells) (from UniProt P42224 1-750)
binding [3]: no binding (condition: unstimulated THP-1 cells (no PMA))
